The list shows a part of the results.
Columns and labels:
Experiment in all cases: glycan array binding signal (z-score within array); higher = stronger binding
Details in all cases: glycan notation: IUPAC condensed, linker removed; mutation: R276L
Fuc(a1-2)Gal(b1-4)Glc = molecular target: Fuc(a1-2)Gal(b1-4)Glc
Method in brief: (§1)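 From the Consortium for Functional Glycomics database, 3228 arrays were curated, keeping only those whose protein sequence was available. Binding is given as a within-array Z-score averaged across arrays sharing a protein sequence and across linkers. Negative Z-scores can be read as non-binding.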

Fuc(a1-2)Gal(b1-4)Glc6S = molecular target: Fuc(a1-2)Gal(b1-4)Glc6S
Method in brief: as §1

Fuc(a1-2)Gal(b1-4)GlcNAc = molecular target: Fuc(a1-2)Gal(b1-4)GlcNAc
Method in brief: as §1

[1] = molecular target: Fuc(a1-2)Gal(b1-4)GlcNAc(b1-2)Man
Method in brief: as §1

[2] = molecular target: Fuc(a1-2)Gal(b1-4)GlcNAc(b1-2)Man(a1-3)[Fuc(a1-2)Gal(b1-4)GlcNAc(b1-2)Man(a1-6)]Man(b1-4)GlcNAc(b1-4)GlcNAc
Method in brief: as §1

[3] = molecular target: Fuc(a1-2)Gal(b1-4)GlcNAc(b1-2)Man(a1-3)[Fuc(a1-2)Gal(b1-4)GlcNAc(b1-2)Man(a1-6)]Man(b1-4)GlcNAc(b1-4)[Fuc(a1-6)]GlcNAc
Method in brief: as §1

[4] = molecular target: Fuc(a1-2)Gal(b1-4)GlcNAc(b1-2)[Fuc(a1-2)Gal(b1-4)GlcNAc(b1-4)]Man(a1-3)[Fuc(a1-2)Gal(b1-4)GlcNAc(b1-2)Man(a1-6)]Man(b1-4)GlcNAc(b1-4)GlcNAc
Method in brief: as §1

[5] = molecular target: Fuc(a1-2)Gal(b1-4)GlcNAc(b1-3)Gal(b1-4)GlcNAc
Method in brief: as §1

[6] = molecular target: Fuc(a1-2)Gal(b1-4)GlcNAc(b1-3)Gal(b1-4)GlcNAc(b1-2)Man(a1-3)[Fuc(a1-2)Gal(b1-4)GlcNAc(b1-3)Gal(b1-4)GlcNAc(b1-2)Man(a1-6)]Man(b1-4)GlcNAc(b1-4)GlcNAc
Method in brief: as §1

[7] = molecular target: Fuc(a1-2)Gal(b1-4)GlcNAc(b1-3)Gal(b1-4)GlcNAc(b1-3)Gal(b1-4)GlcNAc
Method in brief: as §1

[8] = molecular target: Fuc(a1-2)Gal(b1-4)GlcNAc(b1-3)GalNAc
Method in brief: as §1

[9] = molecular target: Fuc(a1-2)Gal(b1-4)GlcNAc(b1-3)[Fuc(a1-2)Gal(b1-4)GlcNAc(b1-6)]GalNAc
Method in brief: as §1

[10] = molecular target: Fuc(a1-2)Gal(b1-4)GlcNAc(b1-3)[Fuc(a1-3)[Gal(b1-4)]GlcNAc(b1-6)]Gal(b1-4)Glc
Method in brief: as §1

[11] = molecular target: Fuc(a1-2)Gal(b1-4)GlcNAc(b1-6)GalNAc
Method in brief: as §1

[12] = molecular target: Fuc(a1-2)Gal(b1-4)GlcNAc6S
Method in brief: as §1

[13] = molecular target: Fuc(a1-2)Gal(b1-4)[Fuc(a1-3)]GlcNAc
Method in brief: as §1

[14] = molecular target: Fuc(a1-2)Gal(b1-4)[Fuc(a1-3)]GlcNAc(b1-2)Man(a1-3)[Fuc(a1-2)Gal(b1-4)[Fuc(a1-3)]GlcNAc(b1-2)Man(a1-6)]Man(b1-4)GlcNAc(b1-4)[Fuc(a1-6)]GlcNAc
Method in brief: as §1

[15] = molecular target: Fuc(a1-2)Gal(b1-4)[Fuc(a1-3)]GlcNAc(b1-2)[Fuc(a1-2)Gal(b1-4)[Fuc(a1-3)]GlcNAc(b1-4)]Man(a1-3)[Fuc(a1-2)Gal(b1-4)[Fuc(a1-3)]GlcNAc(b1-2)Man(a1-6)]Man(b1-4)GlcNAc(b1-4)GlcNAc
Method in brief: as §1

[16] = molecular target: Fuc(a1-2)Gal(b1-4)[Fuc(a1-3)]GlcNAc(b1-3)Gal(b1-4)[Fuc(a1-3)]GlcNAc
Method in brief: as §1

[17] = molecular target: Fuc(a1-2)Gal(b1-4)[Fuc(a1-3)]GlcNAc(b1-3)Gal(b1-4)[Fuc(a1-3)]GlcNAc(b1-3)Gal(b1-4)[Fuc(a1-3)]GlcNAc
Method in brief: as §1

[18] = molecular target: Fuc(a1-2)Gal(b1-4)[Fuc(a1-3)]GlcNAc(b1-3)GalNAc
Method in brief: as §1

[19] = molecular target: Fuc(a1-2)Gal(b1-4)[Fuc(a1-3)]GlcNAc(b1-3)[Neu5Ac(a2-6)Gal(b1-4)GlcNAc(b1-6)]Gal(b1-4)Glc
Method in brief: as §1

[20] = molecular target: Fuc(a1-2)Gal3S(b1-4)GlcNAc
Method in brief: as §1

B1: SUN4P (Saccharomyces cerevisiae), P53616 (protein)
chain: MGSSHHHHHHSSGLVPRGSHNGSIYGDLADFSGPYEKFEDGTIPCGQFPSGQGVIPISWLDEGGWSGVENTDTSTGGSCKEGSYCSYACQPGMSKTQWPSDQPSDGRSIGGLLCKDGYLYRSNTDTDYLCEWGVDAAYVVSELSNDVAICLTDYPGTENMVIPTYVQAGDSLPLTVVDQDTYYTWQGLKTSAQYYVNNAGISVEDACVWGSSSSGVGNWAPLNFGAGSSDGVAYLSLIPNPNNGNALNFNVKIVAADDSSTVNGECIYENGSFSGGSDGCTVSVTAGKAKFVLYN
glycan array binding signal (z-score) (Fuc(a1-2)Gal(b1-4)Glc): -0.423
glycan array binding signal (z-score) (Fuc(a1-2)Gal(b1-4)Glc6S): -0.716
glycan array binding signal (z-score) (Fuc(a1-2)Gal(b1-4)GlcNAc): -0.222
glycan array binding signal (z-score) [1]: -0.082
glycan array binding signal (z-score) [2]: -0.72
glycan array binding signal (z-score) [3]: -0.278
glycan array binding signal (z-score) [4]: 1.31
glycan array binding signal (z-score) [5]: -0.53
glycan array binding signal (z-score) [6]: 0.582
glycan array binding signal (z-score) [7]: -0.515
glycan array binding signal (z-score) [8]: -0.667
glycan array binding signal (z-score) [9]: -0.351
glycan array binding signal (z-score) [10]: 0.444
glycan array binding signal (z-score) [11]: -0.896
glycan array binding signal (z-score) [12]: 1.81
glycan array binding signal (z-score) [13]: -0.469
glycan array binding signal (z-score) [14]: 1.16
glycan array binding signal (z-score) [15]: 0.881
glycan array binding signal (z-score) [16]: -0.401
glycan array binding signal (z-score) [17]: 0.136
glycan array binding signal (z-score) [18]: -0.919
glycan array binding signal (z-score) [19]: 0.164
glycan array binding signal (z-score) [20]: 0.469
